Here are results for two molecules from patent publication US7528109 (GEORGETOWN UNIVERSITY, dated 2009).

Protein sequences, listed by entry. Tags and fused reporters are not part of them. Lines headed by an entry give the natural chain unless they say otherwise; changes in a name come on top.
UniProt Q9UM73: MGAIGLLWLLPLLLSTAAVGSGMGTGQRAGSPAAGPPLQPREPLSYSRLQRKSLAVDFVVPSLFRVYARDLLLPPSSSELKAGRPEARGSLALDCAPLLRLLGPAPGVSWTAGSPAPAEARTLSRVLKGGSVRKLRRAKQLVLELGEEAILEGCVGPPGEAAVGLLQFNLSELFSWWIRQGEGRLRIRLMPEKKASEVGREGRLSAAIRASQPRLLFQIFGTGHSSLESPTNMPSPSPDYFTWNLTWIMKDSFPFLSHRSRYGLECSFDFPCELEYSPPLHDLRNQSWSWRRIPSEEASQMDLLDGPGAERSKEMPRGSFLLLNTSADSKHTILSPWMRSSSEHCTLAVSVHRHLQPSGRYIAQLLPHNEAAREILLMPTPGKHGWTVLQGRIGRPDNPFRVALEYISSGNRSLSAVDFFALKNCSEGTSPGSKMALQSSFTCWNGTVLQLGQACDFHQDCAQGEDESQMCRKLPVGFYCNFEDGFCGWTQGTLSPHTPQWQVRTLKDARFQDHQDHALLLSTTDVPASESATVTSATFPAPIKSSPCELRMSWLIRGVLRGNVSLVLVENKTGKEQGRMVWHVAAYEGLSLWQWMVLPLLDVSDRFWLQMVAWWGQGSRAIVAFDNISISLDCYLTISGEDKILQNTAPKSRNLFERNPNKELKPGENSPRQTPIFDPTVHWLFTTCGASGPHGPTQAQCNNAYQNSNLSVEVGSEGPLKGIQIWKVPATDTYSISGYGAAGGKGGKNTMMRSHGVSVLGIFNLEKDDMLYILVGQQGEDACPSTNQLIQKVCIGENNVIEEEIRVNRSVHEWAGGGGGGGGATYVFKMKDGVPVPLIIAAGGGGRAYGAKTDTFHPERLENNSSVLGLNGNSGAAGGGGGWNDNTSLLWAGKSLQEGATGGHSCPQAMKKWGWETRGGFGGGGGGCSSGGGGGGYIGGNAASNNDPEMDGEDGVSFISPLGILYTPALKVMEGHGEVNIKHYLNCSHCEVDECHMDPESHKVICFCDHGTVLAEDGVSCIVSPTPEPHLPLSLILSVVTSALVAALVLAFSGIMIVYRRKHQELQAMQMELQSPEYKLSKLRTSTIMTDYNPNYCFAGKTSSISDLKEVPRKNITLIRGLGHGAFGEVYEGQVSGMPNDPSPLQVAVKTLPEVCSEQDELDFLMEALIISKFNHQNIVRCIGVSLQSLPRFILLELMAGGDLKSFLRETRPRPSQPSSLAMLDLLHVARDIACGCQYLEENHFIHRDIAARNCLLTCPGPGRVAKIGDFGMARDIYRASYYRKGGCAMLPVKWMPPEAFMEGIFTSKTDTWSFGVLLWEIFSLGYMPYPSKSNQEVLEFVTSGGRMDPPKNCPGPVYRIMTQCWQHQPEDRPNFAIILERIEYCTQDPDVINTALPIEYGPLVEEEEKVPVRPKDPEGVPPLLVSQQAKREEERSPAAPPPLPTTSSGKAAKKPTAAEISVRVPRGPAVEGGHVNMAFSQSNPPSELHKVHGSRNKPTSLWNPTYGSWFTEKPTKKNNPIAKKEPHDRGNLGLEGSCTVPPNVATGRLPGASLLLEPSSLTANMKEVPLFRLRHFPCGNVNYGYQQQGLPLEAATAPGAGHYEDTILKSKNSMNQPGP

Assay [1] deals with T1, pleiotrophin (PTN), purified from the culture supernatant of cells transfected with the human PTN cDNA (human) (UniProt P21246).
T1 sequence (looked up): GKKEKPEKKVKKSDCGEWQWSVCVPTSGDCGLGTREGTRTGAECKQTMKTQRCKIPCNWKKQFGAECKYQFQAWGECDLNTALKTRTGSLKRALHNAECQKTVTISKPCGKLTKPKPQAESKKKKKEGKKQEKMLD
Briefly: competition for binding of radiolabeled PTN to 32D/ALK cells.

Assay [2] concerns the target ALK (anaplastic lymphoma kinase) receptor, full length, expressed on cells (human) (UniProt Q9UM73). Briefly: saturation binding of 35S-labeled PTN to 32D/ALK cells.
For assay [3], the target named is extracellular domain (ECD) of ALK (PTNR) produced as an Fc fusion protein in CHO cells (human) (UniProt Q9UM73). Briefly: cell-free dot assay on nitrocellulose, immunodetection, both orientations.

No constants are given. Whether binding was seen depends on the method and setting. Some binding calls cover weakened binding; strength is not graded here.

Consider “extracellular domain (ECD) of ALK (PTNR) produced as an Fc fusion protein in CHO cells (from UniProt Q9UM73 19-1038)”, for which the binding result in assay [1] is “binds”.

B1: pleiotrophin (PTN), purified from the culture supernatant of cells transfected with the human PTN cDNA (ligand, UniProt P21246 33-168, looked up)
chain: T1 sequence (looked up)
notes: also called PTN ligand; radiolabeled PTN
Take B1: the binding entry in assay [2] and in assay [3] was “binds” each time.
